In paper PMC7604352:
Results are given in words; binding and its absence hold for the method and conditions named. In cells and extracts the contact can be indirect. Some binding calls cover weakened binding; strength is not graded here.

Amino acid sequences for entries named in this document (tags omitted). Residues count along the entry.
UniProt O00206, residues 24-839: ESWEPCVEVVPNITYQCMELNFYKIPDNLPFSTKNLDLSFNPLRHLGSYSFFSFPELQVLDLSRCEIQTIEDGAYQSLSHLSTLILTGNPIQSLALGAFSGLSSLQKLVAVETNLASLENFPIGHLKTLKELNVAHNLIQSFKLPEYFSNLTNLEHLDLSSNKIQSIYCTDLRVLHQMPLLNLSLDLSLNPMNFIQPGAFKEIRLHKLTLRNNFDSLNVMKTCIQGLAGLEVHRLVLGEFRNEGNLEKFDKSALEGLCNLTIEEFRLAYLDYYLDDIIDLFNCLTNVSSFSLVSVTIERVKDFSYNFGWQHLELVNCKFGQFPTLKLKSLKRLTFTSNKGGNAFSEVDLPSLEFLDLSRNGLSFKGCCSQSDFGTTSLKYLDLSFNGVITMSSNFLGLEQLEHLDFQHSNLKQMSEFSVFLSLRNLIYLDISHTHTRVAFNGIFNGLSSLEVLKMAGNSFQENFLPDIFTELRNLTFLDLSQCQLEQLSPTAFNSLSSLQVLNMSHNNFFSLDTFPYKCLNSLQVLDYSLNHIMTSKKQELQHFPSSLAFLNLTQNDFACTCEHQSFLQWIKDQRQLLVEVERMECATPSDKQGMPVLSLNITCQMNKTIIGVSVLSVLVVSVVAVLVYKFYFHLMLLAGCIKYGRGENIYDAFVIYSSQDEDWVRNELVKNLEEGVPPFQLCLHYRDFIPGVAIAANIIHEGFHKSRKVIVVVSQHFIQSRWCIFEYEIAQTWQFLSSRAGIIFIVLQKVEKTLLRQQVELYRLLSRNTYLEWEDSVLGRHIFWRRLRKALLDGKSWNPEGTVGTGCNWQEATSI

Target: toll-like receptor 4 (human (endogenous in Hep3B)) (UniProt O00206)
Assay: co-IP; Hep3B cells; immunoprecipitation with the antibody against TLR4 (sc-293072, Santa Cruz), blot for USP13; protocol as in Tu et al., 2014

B1: ubiquitin specific peptidase 13 (enzyme, UniProt Q92995 1-863)
chain: MQRRGALFGMPGGSGGRKMAAGDIGELLVPHMPTIRVPRSGDRVYKNECAFSYDSPNSEGGLYVCMNTFLAFGREHVERHFRKTGQSVYMHLKRHVREKVRGASGGALPKRRNSKIFLDLDTDDDLNSDDYEYEDEAKLVIFPDHYEIALPNIEELPALVTIACDAVLSSKSPYRKQDPDTWENELPVSKYANNLTQLDNGVRIPPSGWKCARCDLRENLWLNLTDGSVLCGKWFFDSSGGNGHALEHYRDMGYPLAVKLGTITPDGADVYSFQEEEPVLDPHLAKHLAHFGIDMLHMHGTENGLQDNDIKLRVSEWEVIQESGTKLKPMYGPGYTGLKNLGNSCYLSSVMQAIFSIPEFQRAYVGNLPRIFDYSPLDPTQDFNTQMTKLGHGLLSGQYSKPPVKSELIEQVMKEEHKPQQNGISPRMFKAFVSKSHPEFSSNRQQDAQEFFLHLVNLVERNRIGSENPSDVFRFLVEERIQCCQTRKVRYTERVDYLMQLPVAMEAATNKDELIAYELTRREAEANRRPLPELVRAKIPFSACLQAFSEPENVDDFWSSALQAKSAGVKTSRFASFPEYLVVQIKKFTFGLDWVPKKFDVSIDMPDLLDINHLRARGLQPGEEELPDISPPIVIPDDSKDRLMNQLIDPSDIDESSVMQLAEMGFPLEACRKAVYFTGNMGAEVAFNWIIVHMEEPDFAEPLTMPGYGGAASAGASVFGASGLDNQPPEEIVAIITSMGFQRNQAIQALRATNNNLERALDWIFSHPEFEEDSDFVIEMENNANANIISEAKPEGPRVKDGSGTYELFAFISHMGTSTMSGHYICHIKKEGRWVIYNDHKVCASERPPKDLGYMYFYRRIPS
binding: binds
